This assay relates to nude mice, LX-1 lung xenograft intrarenal, tumor weight T/C. The experiment in a line: NCI In Vivo Anticancer Drug Screen. Data for tumor model Human Lung LX-1 Xenograft (intrarenal inoculation) in NU/NU Swiss (nude) mice. Particulars: T/C endpoint: mean tumor weight change, higher T/C = larger tumour; for T/C: evaluated on day 11. The procedure:
The antitumor activity of compounds was measured in mice bearing transplantable tumors. Survival or tumor size were measured and the results are expressed as the measurement made in the treated group (T) divided by the measurement made in the vehicle treated control group (C). The tumor model used in this assay is Human Lung LX-1 Xenograft (intrarenal inoculation) in NU/NU Swiss (nude) mice
For orientation: Xenograft models place foreign cells or tissue in a host animal.

The mark [1] stands for this setting: dose: 25.0 mg/kg/injection, schedule: Q01DX010 (sc), vehicle: saline with Tween-80.
Where [2] appears, read: dose: 50.0 mg/kg/injection, schedule: Q01DX010 (sc), vehicle: saline with Tween-80.
The mark [3] stands for this setting: dose: 100.0 mg/kg/injection, schedule: Q01DX010 (sc), vehicle: saline with Tween-80.
Setting [4] is: dose: 200.0 mg/kg/injection, schedule: Q01DX010 (sc), vehicle: saline with Tween-80.
[5] abbreviates: dose: 150.0 mg/kg/injection, schedule: Q04DX003 (sc), vehicle: Klucel (hydroxypropylcellulose) (HPC).
[6] abbreviates: dose: 300.0 mg/kg/injection, schedule: Q04DX003 (sc), vehicle: Klucel (hydroxypropylcellulose) (HPC).
The mark [7] stands for this setting: dose: 100.0 mg/kg/injection, schedule: Q01DX010 (sc), vehicle: Klucel (hydroxypropylcellulose) (HPC).
Setting [8] is: dose: 200.0 mg/kg/injection, schedule: Q01DX010 (sc), vehicle: Klucel (hydroxypropylcellulose) (HPC).
Setting [9] is: dose: 400.0 mg/kg/injection, schedule: Q01DX010 (sc), vehicle: Klucel (hydroxypropylcellulose) (HPC).
Setting [10] is: dose: 800.0 mg/kg/injection, schedule: Q01DX010 (sc), vehicle: Klucel (hydroxypropylcellulose) (HPC).
[11] abbreviates: dose: 400.0 mg/kg/injection, schedule: Q01DX010 (sc), vehicle: saline with Tween-80.

Structures are written as SMILES. The list does not hold the whole screen: it covers a few groups of compounds. Other doses and runs of a compound may be missing. T/C gives the treated animals as a percentage of the vehicle group. Schedules are NCI's codes, taken here to give the interval after Q, in days (D) or hours (H), and the number of doses after X. Some entries hold several experiments; their values stand side by side, smallest first. Some T/C values carry the count of animals alive at the toxicity check; without a count or a note in brackets, all were alive then. Some metal complexes and salts are drawn in pieces, as in the source, so charges may not balance. Some doses have a count of surviving animals in place of a T/C: the source holds a T/C of zero for them, seemingly a mark for toxic or unscored doses. Survivors were counted at the toxicity check; its day is shown where the source gives one, and later deaths do not show.

On to `[Au].[C-]#N.[C-]#N`, for which the T/C is, setting by setting: (dose: 10.0 mg/kg/injection, schedule: Q04DX003 (sc), vehicle: suspension in saline) 70 % of control; (dose: 20.0 mg/kg/injection, schedule: Q04DX003 (sc), vehicle: suspension in saline) 56 % of control [5 of 6 alive on day 11]. Where the note is “dose: 40.0 mg/kg/injection, schedule: Q04DX003 (sc), vehicle: suspension in saline”, the survivor count is listed as 1 of 6 on day 11.
Regarding `ClC1CSC1`, the T/C runs as follows: (dose: 300.0 mg/kg/injection, schedule: Q04DX003 (sc), vehicle: saline with Tween-80) 112 % of control; (dose: 600.0 mg/kg/injection, schedule: Q04DX003 (sc), vehicle: saline with Tween-80) 118 % of control; (dose: 1200.0 mg/kg/injection, schedule: Q04DX003 (sc), vehicle: saline with Tween-80) 72 % of control; (dose: 2400.0 mg/kg/injection, schedule: Q04DX003 (sc), vehicle: saline with Tween-80) 57 % of control.
As to `Nc1cc([As]=O)ccc1O` (stereo not drawn), the T/C is 123 % of control (dose: 6.25 mg/kg/injection, schedule: Q01DX010 (sc), vehicle: saline with Tween-80); 162 % of control (dose: 12.5 mg/kg/injection, schedule: Q01DX010 (sc), vehicle: saline with Tween-80); 103 and 118 % of control under setting [1]; 117 and 165 % of control under setting [2]. Also, the survivor count reads like this: under setting [3], 0 of 3 on day 11; under setting [4], 0 of 3 on day 11.
As for `ICCN(CCI)c1cccc2ccccc12`, the T/C (dose: 37.5 mg/kg/injection, schedule: Q04DX003 (sc), vehicle: Klucel (hydroxypropylcellulose) (HPC)) is 90 % of control; the T/C (dose: 75.0 mg/kg/injection, schedule: Q04DX003 (sc), vehicle: Klucel (hydroxypropylcellulose) (HPC)) was 103 % of control; the T/C under setting [5] was 85 % of control; the T/C under setting [6] is 64 % of control.
As to `CC1(C)CN1P(=O)(Nc1ncccn1)N1CC1(C)C` (stereo not drawn), the T/C is 88 % of control (dose: 200.0 mg/kg/injection, schedule: Q04DX003 (sc), vehicle: saline); 77 % of control (dose: 400.0 mg/kg/injection, schedule: Q04DX003 (sc), vehicle: saline); 55 % of control (dose: 800.0 mg/kg/injection, schedule: Q04DX003 (sc), vehicle: saline). The survivor count (dose: 1600.0 mg/kg/injection, schedule: Q04DX003 (sc), vehicle: saline) is 0 of 6 on day 11.
Turning to `CC(=O)OC(SC(OC(C)=O)C(Cl)(Cl)Cl)C(Cl)(Cl)Cl` (stereo not drawn), the T/C under setting [7] is 116 % of control, the T/C under setting [8] was 143 % of control, the T/C under setting [9] is 97 % of control and the T/C under setting [10] is 101 % of control.
With `NC(=O)c1[nH]cnc1/N=N\N(CCCl)CCCl`, the T/C by setting is: under setting [2], 59 % of control; under setting [3], 38 % of control. The survivor count is on record as 1 of 3 on day 11 under setting [4] and 0 of 3 on day 11 under setting [11].
As to `[Au+].[Au+].c1ccc([PH+](c2ccccc2)c2ccccc2)cc1.c1ccc([PH+](c2ccccc2)c2ccccc2)cc1.n1n[n-]c(-c2nnn[n-]2)n1`, the T/C by setting is: under setting [1], 56 % of control; under setting [2], 84 % of control [2 of 2 alive on day 11]; under setting [3], 77 % of control [2 of 2 alive on day 11]; under setting [4], 41 % of control [2 of 2 alive on day 11]; under setting [11], 87 % of control [2 of 2 alive on day 11]. The survivor count (dose: 800.0 mg/kg/injection, schedule: Q01DX010 (sc), vehicle: saline with Tween-80) is 1 of 3 on day 11.
With `ClP1(Cl)=NP(Cl)(Cl)=NP(Cl)(Cl)=NP(Cl)(Cl)=N1`, the T/C reads like this: under setting [7], 57 % of control; under setting [8], 65 % of control; under setting [9], 87 % of control; under setting [10], 41 % of control.
On to `CCCNC(=O)c1ccc(N(CCCl)CCCl)cc1`, for which the T/C is 76 % of control under setting [5]; 139 % of control under setting [6]; 129 % of control [5 of 6 alive on day 11] (dose: 600.0 mg/kg/injection, schedule: Q04DX003 (sc), vehicle: Klucel (hydroxypropylcellulose) (HPC)); 81 % of control [5 of 6 alive on day 11] (dose: 1200.0 mg/kg/injection, schedule: Q04DX003 (sc), vehicle: Klucel (hydroxypropylcellulose) (HPC)).

The record behind these values is PubChem BioAssay AID264 (DTP/NCI, 2004).
